2 compounds from ChEMBL document CHEMBL5674883, “The Heterochromatin Landscape in Migrating Cells and the Importance of H3K27me3 for Associated Transcriptome Alterations” (Cells, 2018) can be followed below.

By UniProt entry, the sequences of proteins in these tests, tags left out.
UniProt Q61188, whole entry: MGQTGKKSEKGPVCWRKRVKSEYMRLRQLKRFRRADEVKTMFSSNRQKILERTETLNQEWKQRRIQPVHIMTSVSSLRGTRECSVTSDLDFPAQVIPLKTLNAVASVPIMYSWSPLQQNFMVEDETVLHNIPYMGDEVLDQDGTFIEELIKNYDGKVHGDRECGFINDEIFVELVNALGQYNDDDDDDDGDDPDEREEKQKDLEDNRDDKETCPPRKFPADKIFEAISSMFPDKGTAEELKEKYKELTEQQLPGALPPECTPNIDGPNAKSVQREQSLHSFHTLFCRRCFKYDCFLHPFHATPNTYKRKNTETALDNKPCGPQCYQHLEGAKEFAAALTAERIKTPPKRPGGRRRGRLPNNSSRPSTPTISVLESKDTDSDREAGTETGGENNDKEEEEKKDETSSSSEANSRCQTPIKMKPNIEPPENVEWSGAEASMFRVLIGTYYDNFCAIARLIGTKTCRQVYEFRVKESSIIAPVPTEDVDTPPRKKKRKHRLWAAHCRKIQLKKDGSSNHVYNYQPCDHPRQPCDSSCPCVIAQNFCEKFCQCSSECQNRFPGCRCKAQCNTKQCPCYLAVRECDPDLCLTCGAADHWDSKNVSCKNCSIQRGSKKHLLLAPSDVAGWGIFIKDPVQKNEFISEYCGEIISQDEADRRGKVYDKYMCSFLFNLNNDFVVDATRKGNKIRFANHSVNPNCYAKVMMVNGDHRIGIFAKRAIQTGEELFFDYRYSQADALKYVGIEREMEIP

This continues a long series; more values of the same kind are listed elsewhere.

What all share (assay type): cell-based
The target of assay [1] is T1, RNA polymerase II (Mus musculus) (UniProt P08775+Q8CFI7+P97760+A0A3Q4L2S8+Q80UW8+P61219+P62488+Q923G2+P60898+O08740+Q63871+P62876). Briefly: Inhibition of RNA polymerase II in mouse B16-F1 migrating cells assessed as fold change in Mut-RNA stability at 0.1 mM measured by ChIP-seq analysis relative to control cells.
Assay [2] has as its target T1, RNA polymerase II (Mus musculus). Briefly: Inhibition of RNA polymerase II in mouse B16-F1 migrating cells assessed as fold change in Tmx3-RNA stability at 0.1 mM measured by ChIP-seq analysis relative to control cells.
The target is the same in assay [3]. As to the kind of experiment: Inhibition of RNA polymerase II in mouse B16-F1 migrating cells assessed as fold change in Pkn2-RNA stability at 0.1 mM measured by ChIP-seq analysis relative to control cells.
The target is the same in assay [4]. Briefly: Inhibition of RNA polymerase II in mouse B16-F1 migrating cells assessed as fold change in Tmed5-RNA stability at 0.1 mM measured by ChIP-seq analysis relative to control cells.
The target is the same in assay [5]. Briefly: Inhibition of RNA polymerase II in mouse B16-F1 migrating cells assessed as fold change in Scaper-RNA stability at 0.1 mM measured by ChIP-seq analysis relative to control cells.
The target is the same in assay [6]. Briefly: Inhibition of RNA polymerase II in mouse B16-F1 migrating cells assessed as fold change in Man1a2-RNA stability at 0.1 mM measured by ChIP-seq analysis relative to control cells.
The target is the same in assay [7]. As to the kind of experiment: Inhibition of RNA polymerase II in mouse B16-F1 migrating cells assessed as fold change in Zfp386-RNA stability at 0.1 mM measured by ChIP-seq analysis relative to control cells.
The target is the same in assay [8]. Briefly: Inhibition of RNA polymerase II in mouse B16-F1 migrating cells assessed as fold change in Evi5-RNA stability at 0.1 mM measured by ChIP-seq analysis relative to control cells.
The target is the same in assay [9]. As to the kind of experiment: Inhibition of RNA polymerase II in mouse B16-F1 migrating cells assessed as fold change in Fos-RNA stability at 0.1 mM measured by ChIP-seq analysis relative to control cells.
Assay [10] has the same target. As to the kind of experiment: Inhibition of RNA polymerase II in mouse B16-F1 migrating cells assessed as fold change in Rlim-RNA stability at 0.1 mM measured by ChIP-seq analysis relative to control cells.
Assay [11] has the same target. Briefly: Inhibition of RNA polymerase II in mouse B16-F1 migrating cells assessed as fold change in Fem1b-RNA stability at 0.1 mM measured by ChIP-seq analysis relative to control cells.
The target is the same in assay [12]. Briefly: Inhibition of RNA polymerase II in mouse B16-F1 migrating cells assessed as fold change in Pvr-RNA stability at 0.1 mM measured by ChIP-seq analysis relative to control cells.
Assay [13] shares this target. As to the kind of experiment: Inhibition of RNA polymerase II in mouse B16-F1 migrating cells assessed as fold change in Ppp1cb-RNA stability at 0.1 mM measured by ChIP-seq analysis relative to control cells.
Assay [14] has the same target. As to the kind of experiment: Inhibition of RNA polymerase II in mouse B16-F1 migrating cells assessed as fold change in Grik2-RNA stability at 0.1 mM measured by ChIP-seq analysis relative to control cells.
Assay [15] shares this target. Briefly: Inhibition of RNA polymerase II in mouse B16-F1 migrating cells assessed as fold change in Ythdc1-RNA stability at 0.1 mM measured by ChIP-seq analysis relative to control cells.
The target is the same in assay [16]. Briefly: Inhibition of RNA polymerase II in mouse B16-F1 migrating cells assessed as fold change in Cacybp-RNA stability at 0.1 mM measured by ChIP-seq analysis relative to control cells.
The target is the same in assay [17]. Briefly: Inhibition of RNA polymerase II in mouse B16-F1 migrating cells assessed as fold change in Tpi1-RNA stability at 0.1 mM measured by ChIP-seq analysis relative to control cells.
For assay [18] the target is unchanged. Briefly: Inhibition of RNA polymerase II in mouse B16-F1 migrating cells assessed as fold change in Dynll1-RNA stability at 0.1 mM measured by ChIP-seq analysis relative to control cells.
For assay [19] the target is unchanged. As to the kind of experiment: Inhibition of RNA polymerase II in mouse B16-F1 migrating cells assessed as fold change in Strbp-RNA stability at 0.1 mM measured by ChIP-seq analysis relative to control cells.
Assay [20] has the same target. As to the kind of experiment: Inhibition of RNA polymerase II in mouse B16-F1 migrating cells assessed as fold change in Ptov1-RNA stability at 0.1 mM measured by ChIP-seq analysis relative to control cells.
Assay [21] addresses Histone-lysine N-methyltransferase EZH2 (Mus musculus) (UniProt Q61188). Briefly: Inhibition of EZH2 in mouse B16-F1 migrating cells assessed as fold change in H3K27me3-dependent regulated Tcaim-mRNA expression at 3 uM measured by ChIP-seq analysis relative to control cells.
For assay [22] the target is unchanged. Briefly: Inhibition of EZH2 in mouse B16-F1 migrating cells assessed as fold change in H3K27me3-buffered regulated Cxcl10-mRNA expression at 3 uM measured by ChIP-seq analysis relative to control cells.
Assay [23] shares this target. Briefly: Inhibition of EZH2 in mouse B16-F1 migrating cells assessed as fold change in H3K27me3-buffered regulated Sparc-mRNA expression at 3 uM measured by ChIP-seq analysis relative to control cells.
For assay [24] the target is unchanged. As to the kind of experiment: Inhibition of EZH2 in mouse B16-F1 migrating cells assessed as fold change in H3K27me3-buffered regulated Egln3-mRNA expression at 3 uM measured by ChIP-seq analysis relative to control cells.
Assay [25] shares this target. As to the kind of experiment: Inhibition of EZH2 in mouse B16-F1 migrating cells assessed as fold change in H3K27me3-buffered regulated Rbms1-mRNA expression at 3 uM measured by ChIP-seq analysis relative to control cells.
Assay [26] shares this target. As to the kind of experiment: Inhibition of EZH2 in mouse B16-F1 migrating cells assessed as fold change in H3K27me3-buffered regulated Gm44103-mRNA expression at 3 uM measured by ChIP-seq analysis relative to control cells.
Assay [27] shares this target. Briefly: Inhibition of EZH2 in mouse B16-F1 migrating cells assessed as fold change in H3K27me3-buffered regulated Flrt3-mRNA expression at 3 uM measured by ChIP-seq analysis relative to control cells.
Assay [28] has the same target. Briefly: Inhibition of EZH2 in mouse B16-F1 migrating cells assessed as fold change in H3K27me3-buffered regulated Tom1-mRNA expression at 3 uM measured by ChIP-seq analysis relative to control cells.
Assay [29] has the same target. Briefly: Inhibition of EZH2 in mouse B16-F1 migrating cells assessed as fold change in H3K27me3-buffered regulated Ankrd10-mRNA expression at 3 uM measured by ChIP-seq analysis relative to control cells.
Assay [30] has the same target. Briefly: Inhibition of EZH2 in mouse B16-F1 migrating cells assessed as fold change in H3K27me3-dependent regulated Hes1-mRNA expression at 3 uM measured by ChIP-seq analysis relative to control cells.

Consider `OC[C@H]1O[C@@H](n2cnc3cc(Cl)c(Cl)cc32)[C@H](O)[C@@H]1O`, for which the log2FC in [1] was -0.59; in assay [2], -1.06; in [3], -0.67; in assay [4], -1.1; in assay [5], -0.53; in assay [6], -0.55. The log2FC in [7] is -0.74; in assay [8], -0.48; in assay [9], 0.53; in assay [10], -0.5; in assay [11] it was -0.5; in assay [12], 0.54. In addition, the log2FC in assay [13] is -0.51; in assay [14], -0.74; in assay [15], -0.38; in assay [16], -0.64; in assay [17], 0.8; in [18], 0.42. Besides, the figures for the log2FC in assay [19] and in assay [20] were -0.57 and 0.38, respectively.
Consider `CCCc1cc(C)[nH]c(=O)c1CNC(=O)c1cc(-c2ccnc(N3CCN(C)CC3)c2)cc2c1cnn2C(C)C`, for which the log2FC in assay [21] is -0.25; in [22] it was -0.97; in assay [23], 0.4; in [24], -0.94; in assay [25], -0.41; in assay [26], -0.68. Also, the log2FC in assay [27] was -0.46; in [28], 0.45; in assay [29], -0.57; in [30] it was 0.31.
